# Test results reported in the supplement of paper PMC3682954.
# Counter-ions that a name gives are not always drawn. ± gives the standard deviation of the averaged measurements. The list shows a part of the results. Most values come without repeats; read them as rough.
# System: RAW 264.7
# Experiment: cell viability (MTT) relative to vehicle control; higher = more viable cells
# Details: stimulus: HMGB1 5 ug/ml, 18 h
# [1] = compound concentration: 1 ug/ml
SMILES,cell viability (compound concentration: 3 uM),cell viability [1]
CC[N+](C)(CC)CCC[n+]1c(-c2ccccc2)c2cc(N)ccc2c2ccc(N)cc21 [Propidium iodide],144%,
Nc1[nH]c(=O)ncc1F,100%,
CCC(=O)O[C@]1(C(=O)SCF)[C@H](C)C[C@H]2[C@@H]3C[C@H](F)C4=CC(=O)C=C[C@]4(C)[C@@]3(F)[C@@H](O)C[C@@]21C,93.4%,
CCC(=O)O[C@]1(C(=O)SCF)[C@H](C)C[C@H]2[C@@H]3C[C@H](F)C4=CC(=O)C=C[C@]4(C)[C@@]3(F)[C@@H](O)C[C@@]21C [Fluticasone propionate],77.5%,
Nc1ccc(/N=N/c2ccccc2)c(N)n1 [Phenazopyridine hydrochloride],127%,
Nc1ccc(/N=N/c2ccccc2)c(N)n1,106%,
CN(C)CCOC(=O)C(c1ccccc1)C1(O)CCCC1 (centres undefined),98.6%,
CN(C)CCOC(=O)C(c1ccccc1)C1(O)CCCC1 (centres undefined) [Cyclopentolate hydrochloride],92.3%,
CCc1cc(Cl)c(OC)c(C(=O)NC[C@@H]2CCCN2CC)c1O,111%,
CC1=CC(=O)C2=C(C)CC[C@@H]3[C@H](OC(=O)[C@H]3C)[C@@H]12 [Leucomisine],106%,
COC(=O)C1=CO[C@@H](C)[C@@H]2CN3CCc4c([nH]c5cc(OC)c(OC)cc45)[C@H]3C[C@H]12 [Reserpiline],,97.5%
Nc1nc(/C(=C/CC(=O)O)C(=O)N[C@@H]2C(=O)N3C(C(=O)O)=CCS[C@H]23)cs1,104%,
NCCCS(=O)(=O)O [3-Amino-1-propanesulfonic acid sodium],105%,
OCCN1CCN(CC/C=C2/c3ccccc3Sc3ccc(Cl)cc32)CC1 [Zuclopenthixol hydrochloride],86.2%,
C=C1CC[C@H](O)C/C1=C/C=C1\CCC[C@]2(C)[C@@H]([C@H](C)/C=C/[C@H](C)C(C)C)CC[C@@H]12,112%,
Nc1nc(N)c2nc(-c3ccccc3)c(N)nc2n1,108%,
Nc1nc(N)c2nc(-c3ccccc3)c(N)nc2n1 [Triamterene],108 ± 6.9%,
C=CC[N+]1([C@H]2C[C@H]3[C@@H]4CC[C@H]5C[C@H](O)[C@@H](N6CCOCC6)C[C@]5(C)[C@H]4CC[C@]3(C)[C@H]2OC(C)=O)CCCC1 [Rocuronium],108%,
CC(C)(C)NC(=O)[C@H]1CC[C@H]2[C@@H]3CC[C@H]4NC(=O)C=C[C@]4(C)[C@H]3CC[C@]12C [Finasteride],104 ± 3.7%,
CC(C)(C)NC(=O)[C@H]1CC[C@H]2[C@@H]3CC[C@H]4NC(=O)C=C[C@]4(C)[C@H]3CC[C@]12C,105 ± 14%,
CC(C)(C)CC(C)(C)c1ccc(OCCOCC[N+](C)(C)Cc2ccccc2)cc1,84.8%,

# As entered above:
# CC[N+](C)(CC)CCC[n+]1c(-c2ccccc2)c2cc(N)ccc2c2ccc(N)cc21 [Propidium iodide] – cell viability (compound concentration: 3 uM): 144%
# Nc1nc(N)c2nc(-c3ccccc3)c(N)nc2n1 – cell viability (compound concentration: 3 uM): 108%
# C=C1CC[C@H](O)C/C1=C/C=C1\CCC[C@]2(C)[C@@H]([C@H](C)/C=C/[C@H](C)C(C)C)CC[C@@H]12 – cell viability (compound concentration: 3 uM): 112%
# Nc1nc(/C(=C/CC(=O)O)C(=O)N[C@@H]2C(=O)N3C(C(=O)O)=CCS[C@H]23)cs1 – cell viability (compound concentration: 3 uM): 104%

# Remaining list, next part

SMILES,cell viability (compound concentration: 3 uM),cell viability [1]
CC(C)(C)CC(C)(C)c1ccc(OCCOCC[N+](C)(C)Cc2ccccc2)cc1 [Benzethonium chloride],94.1%,
Cn1nnc2c(C(N)=O)ncn2c1=O [Temozolomide],100 ± 5%,
Cn1nnc2c(C(N)=O)ncn2c1=O,97%,
COc1ccc(CCn2nnnc2C2(c3ccc(C)cc3)CC2)cc1 [Mephetyl tetrazole],105%,
C=C1C(=O)O[C@H]2[C@H]1CC/C(C)=C/CC[C@@]1(C)O[C@@H]21 [Parthenolide],98.3 ± 8.3%,102%
CCCCOc1ccc(C(=O)CCN2CCCCC2)cc1,100%,
CCCCOc1ccc(C(=O)CCN2CCCCC2)cc1 [Dyclonine hydrochloride],109%,
COC(=O)C(C)(N)Cc1ccc(O)cc1 (racemic) [alpha-Methyl-DL-tyrosine methyl ester hydrochloride],106%,
COC(=O)[C@H]1[C@H]2C[C@H]3c4[nH]c5ccccc5c4CCN3C[C@H]2CC[C@@H]1O [Rauwolscine hydrochloride],123%,96.2%
CC(CN(C)C)CN1c2ccccc2CCc2ccccc21 (centres undefined) [Trimipramine maleate],109%,
CC(CN(C)C)CN1c2ccccc2CCc2ccccc21 (centres undefined) [Trimipramine maleate salt],91%,
CC(CN(C)C)CN1c2ccccc2CCc2ccccc21 (centres undefined),102%,
OC(CCN1CCCC1)(c1ccccc1)C1CCCCC1 (centres undefined),102%,
OC(CCN1CCCC1)(c1ccccc1)C1CCCCC1 (centres undefined) [Procyclidine hydrochloride],87.4%,
CC(C)NCC(O)COc1cccc2[nH]ccc12 (centres undefined),111%,
CC(C)NCC(O)COc1cccc2[nH]ccc12 (centres undefined) [Pindolol],108 ± 2.6%,
C[N+](C)(C)C[C@H](O)CC(=O)[O-],111%,
CC(C)C(=O)c1c(C(C)C)nn2ccccc12 [Ibudilast],101 ± 1.2%,
C[C@H]1[C@H]2CC[C@H]3[C@@H]4CC=C5C[C@@H](N(C)C)CC[C@]5(C)[C@H]4CC[C@]23CN1C [Conessine],,97.3%
"Nc1ncnc2c1ncn2[C@@H]1O[C@@H]2COP(=O)(O)O[C@H]2[C@H]1O [Adenosine 3',5'-cyclic monophosphate]",113%,
CC1=C(/C=C/C(C)=C/C=C/C(C)=C/C=C/C=C(C)/C=C/C=C(C)/C=C/C(=O)[C@]2(C)C[C@@H](O)CC2(C)C)C(C)(C)C[C@H](O)C1,130%,

SMILES,cell viability (compound concentration: 3 uM),cell viability [1]
NC(N)=NC(N)=Nc1ccccc1 [1-Phenylbiguanide],102%,
C[C@H](Cc1ccc(O)c(O)c1)[C@@H](C)Cc1ccc(O)c(O)c1,113%,
COc1ccc2c(=O)cc(-c3ccc(O)cc3)oc2c1,,80.8%
NCCc1ccc(O)c(O)c1,99.6%,
NCCc1ccc(O)c(O)c1 [Dopamine hydrochloride],104 ± 9.4%,
CC1(C)O[C@@H]2C[C@H]3[C@@H]4C[C@H](F)C5=CC(=O)C=C[C@]5(C)[C@H]4[C@@H](O)C[C@]3(C)[C@]2(C(=O)CO)O1,109%,
CC1(C)O[C@@H]2C[C@H]3[C@@H]4C[C@H](F)C5=CC(=O)C=C[C@]5(C)[C@H]4[C@@H](O)C[C@]3(C)[C@]2(C(=O)CO)O1 [Flunisolide],113%,
Cc1cc(C(=O)N/N=C/c2c(O)c(O)c(C(C)C)c3cc(C)c(-c4c(C)cc5c(C(C)C)c(O)c(O)c(/C=N/NC(=O)c6cc(C)[nH]n6)c5c4O)c(O)c23)n[nH]1,,94.6%
C[C@H](CS)C(=O)N1CCC[C@H]1C(=O)O [Captopril],102 ± 7.6%,
C[C@H](CS)C(=O)N1CCC[C@H]1C(=O)O,102%,
CN(Cc1cc(Br)cc(Br)c1N)C1CCCCC1 [Bromhexine hydrochloride],131%,
CN(Cc1cc(Br)cc(Br)c1N)C1CCCCC1,101%,
CN(Cc1cc(Br)cc(Br)c1N)C1CCCCC1 [Bromhexine],118%,
NC(=O)c1ccccc1 [Benzamide],104%,
"COc1ccc2c(=O)cc(-c3ccccc3OC)oc2c1 [2',7-Dimethoxyflavone]",,96.2%
O=C1NC(c2cccc([N+](=O)[O-])c2)=CCN1c1ccccc1O [Icilin],97.9%,
CC(=O)OCC(=O)[C@@]1(O)CC[C@H]2[C@@H]3CCC4=CC(=O)C=C[C@]4(C)[C@H]3[C@@H](O)C[C@@]21C [prednisolone 21-acetate],,106%
CC(=O)OCC(=O)[C@@]1(O)CC[C@H]2[C@@H]3CCC4=CC(=O)C=C[C@]4(C)[C@H]3[C@@H](O)C[C@@]21C,110%,
Nc1ccn([C@@H]2O[C@H](COP(=O)(O)O)[C@@H](O)[C@H]2O)c(=O)n1 [Cytidine 5'-monophosphate],,91.6%
C[C@]12CCC(=O)C=C1CC[C@@H]1[C@@H]2[C@@H](O)C[C@@]2(C)[C@H]1CC[C@]2(O)C(=O)COP(=O)(O)O,110%,
Nc1ncnc2c1ncn2C1CCCC1 [9-cyclopentyladenine],110%,

SMILES,cell viability (compound concentration: 3 uM),cell viability [1]
CCCN(CC1CC1)c1nc(C)nc(Nc2c(Cl)cc(Cl)cc2Cl)c1Cl,106%,
CCCCCC(O)CCCC(=O)O (centres undefined) [5-hydroxydecanoic acid sodium],106%,
CC[C@H](c1ccc(O)cc1)[C@@H](CC)c1ccc(O)cc1,110%,
CC[C@H](c1ccc(O)cc1)[C@@H](CC)c1ccc(O)cc1 [Hexestrol],108 ± 5.2%,
Cc1c(Nc2ncccc2C(=O)O)cccc1C(F)(F)F [Flunixin meglumine],126%,
Cc1c(Nc2ncccc2C(=O)O)cccc1C(F)(F)F,102%,
COc1cc(N)c(Cl)cc1C(=O)OCCN1CCCCC1,105%,
Cc1cc(=O)oc2cc(OC3OC(C(=O)O)C(O)C(O)C3O)ccc12 [4-Methylumbelliferyl-beta-D-glucuronide trihydrate],,103%
CN(C(=O)CCCOc1ccc2[nH]c(=O)ccc2c1)C1CCCCC1 [Cilostamide],103.3 ± 0.59%,
NNC(=O)c1ccncc1,106%,
NNC(=O)c1ccncc1 [Isoniazid],110.9 ± 0.79%,
CCC(=O)OCC(=O)[C@@]1(OC(=O)CC)[C@@H](C)C[C@H]2[C@@H]3CCC4=CC(=O)C=C[C@]4(C)[C@@]3(F)[C@@H](O)C[C@@]21C,112%,
CC1(C)O[C@@H]2C[C@H]3[C@@H]4C[C@H](F)C5=CC(=O)CC[C@]5(C)[C@H]4[C@@H](O)C[C@]3(C)[C@]2(C(=O)CO)O1 [Flurandrenolide],107%,
CC1(C)O[C@@H]2C[C@H]3[C@@H]4C[C@H](F)C5=CC(=O)CC[C@]5(C)[C@H]4[C@@H](O)C[C@]3(C)[C@]2(C(=O)CO)O1,116%,
N[C@@H](COP(=O)(O)O)C(=O)O [O-Phospho-L-serine],102%,
Cc1cccc(N(C)C(=S)Oc2ccc3ccccc3c2)c1 [Tolnaftate],89.6%,
Cc1cccc(N(C)C(=S)Oc2ccc3ccccc3c2)c1,119%,
COc1cc(C(=O)OC2CC3CCC2(C)C3(C)C)ccc1O (centres undefined),,101%
O=c1[nH]c(=O)n([C@H]2C[C@H](O)[C@@H](CO)O2)cc1I [Idoxuridine],94.3 ± 7.5%,
